Patent US20210246189A1
Results are given in words; binding and its absence hold for the method and conditions named. Some results given as binding are weak or reduced against the parent protein; the word gives no strength. Where a sequence is shown, tags or fusion partners need not be part of it.

By UniProt entry, the sequences of proteins in these tests, tags left out. Residues count along the entry.
UniProt P15391, residues 20-556: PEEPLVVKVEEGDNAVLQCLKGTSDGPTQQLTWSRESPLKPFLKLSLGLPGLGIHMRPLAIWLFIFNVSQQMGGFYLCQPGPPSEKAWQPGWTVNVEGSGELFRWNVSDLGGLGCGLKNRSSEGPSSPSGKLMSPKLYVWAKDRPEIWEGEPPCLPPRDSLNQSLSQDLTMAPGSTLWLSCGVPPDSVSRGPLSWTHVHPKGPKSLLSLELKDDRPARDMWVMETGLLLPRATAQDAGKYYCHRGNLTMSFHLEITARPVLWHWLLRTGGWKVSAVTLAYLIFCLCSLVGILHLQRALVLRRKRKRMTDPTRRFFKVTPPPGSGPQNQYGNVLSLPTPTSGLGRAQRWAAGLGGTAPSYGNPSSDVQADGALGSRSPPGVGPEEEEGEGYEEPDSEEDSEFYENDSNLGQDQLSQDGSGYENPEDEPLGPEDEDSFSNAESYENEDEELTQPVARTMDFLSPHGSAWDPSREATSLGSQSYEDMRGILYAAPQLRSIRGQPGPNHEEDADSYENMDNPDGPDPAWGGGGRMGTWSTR

Assays:
[1] = biological target: CD19 expressed on the surface of living B cells (UniProt P15391); test: flow cytometry koff-rate measurement on CD20 positive B cells, after D-biotin
[2] = biological target: CD19 expressed on the surface of living B cells (UniProt P15391); test: flow cytometry koff-rate measurement on living B cells among PBMCs, after D-biotin

B1: extracellular domain (ECD) of an αCD19 CAR with Strep- and Tub-tag, fluorescently labeled (protein)
chain: DIVMTQAAPSIPVTPGESVSISCRSSKSLLNSNGNTYLYWFLQRPGQSPQLLIYRMSNLASGVPDRFSGSGSGTAFTLRISRVEAEDVGVYYCMQHLEYPFTFGAGTKLELKGSTSGSGKPGSGEGSTKGEVQLQQSGPELIKPGASVKMSCKASGYTFTSYVMHWVKQKPGQGLEWIGYINPYNDGTKYNEKFKGKATLTSDKSSSTAYMELSSLTSEDSAVYYCARGTYYYGSRVFDYWGQGTTLTVSSWSHPQFEKGGGSGGGSGGSSAWSHPQFEKVDSVEGEGEEEGEE
binding [1]: binds
binding [2]: binds
